# Data taken from PubChem BioAssay AID2685 (National Center for Advancing Translational Sciences (NCATS), 2010).
# The list shows a part of the results. The main result of the screen is listed elsewhere. These columns were measured beside it and carry no call. The list favours compounds with an active or inconclusive main result. Words in brackets tell the shape of the fitted curve; partial curves, single points and poor fits give uncertain potencies.
# Assay: qHTS Assay for Lipid Storage Modulators in Drosophila S3 Cells;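 for cell number change: cells counted by Cell Tracker Red CMTPX staining in the red channel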
# Conditions: BODIPY lipid droplet fluorescence, 18-24 h; for cell number change: measured here: cell count max response, cells fed with added oleic acid
# Method in brief: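 Drosophila S3 cells loaded with oleic acid (400 uM, as added) and compounds at several concentrations; lipid droplets imaged by 488-nm laser-scanning cytometry, 500–530 nm intensity and object ratio to cell channel. Percent activity normalized to 20 uM Triacsin C.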
# [1] = measured here: lipid fluorescence (Fed channel) AC50, cells fed with added oleic acid
# [2] = measured here: cell number channel AC50, cells fed with added oleic acid
Compound,cell number change,AC50 [1],AC50 [2]
O=C(CN1C(=O)NC2(CCCCC2)C1=O)N1CCN(S(=O)(=O)c2ccc(Cl)s2)CC1,10%,"8.2 µM [rising, partial curve]",–
Cn1c(Cc2ccccc2)nnc1SCC(=O)Nc1ccc(N2CCOCC2)cc1,-8.12%,–,–
COc1ccccc1NS(=O)(=O)c1cccc(C(=O)N2CCCCCC2)c1,17.3%,–,–
CCCn1nc(C(=O)Nc2ccc3nc(C)sc3c2)c2ccccc2c1=O,–,"0.82 µM [rising, full curve, poor fit]","6.51 µM [falling, single point]"
Cc1ccc(C)c(N2N=C(C(=O)OCC(=O)N(C)c3ccccc3)CCC2=O)c1,-31.3%,–,–
NC(N)=NC(N)=Nc1cccc2ccccc12,15.4%,–,–
Cc1cc2c(cc1C)N(C(=O)CSC1=NCCS1)C(C)(C)c1ssc(=S)c1-2,-66.8%,"23.1 µM [falling, partial curve]","16.4 µM [falling, partial curve, poor fit]"
C=CCn1c(SCC(=O)Nc2ccc(C(=O)OCC)cc2)nnc1-c1sc(N)nc1C,-16.4%,"1.3 µM [rising, full curve]",–
COc1cc(/C=C(\NC(C)=O)C(=O)NC(C)(C)C)ccc1OC(C)=O,0.569%,"1.16 µM [falling, single point]","1.46 µM [falling, partial curve]"
CN(C)c1ccc(/C=C/C(=O)c2ccc3c(c2)OCO3)cc1,-32.8%,"0.00731 µM [rising, full curve, poor fit]","16.4 µM [falling, single point]"
O=C(Cc1ccccc1F)NNC(=O)c1ccncc1,3.47%,"1.3 µM [falling, partial curve]",–
COc1ccc(-c2cc(=O)oc3cc(OCC(=O)N4C[C@H]5C[C@@H](C4)c4cccc(=O)n4C5)ccc23)cc1,-11.8%,"0.082 µM [falling, full curve, poor fit]",–
COc1ccc(Cl)cc1NC(=S)N1CCN(S(C)(=O)=O)CC1,0.117%,"29.1 µM [falling, single point]",–
Cc1cc(C(=O)OC2CCOC2=O)c2ccccc2n1 (stereo not given),-17.7%,"0.291 µM [falling, partial curve, poor fit]",–
Cc1ccc(C)c(OCC(=O)Nc2cc(NC(=O)COc3cc(C)ccc3C)cc(C(=O)O)c2)c1,-22.5%,–,–
COc1ccc(-c2ccccc2NC(=O)C2CCCN(Cc3ccco3)C2)cc1 (stereo not given),19.6%,–,–
C/C(CC(=O)Nc1ccc(N(C)C)cc1)=N\NC(=O)C(=O)NCc1ccccc1,32.9%,"18.4 µM [rising, single point]","2.31 µM [rising, full curve, poor fit]"
O=C(CSc1nnc(Cc2ccccc2)o1)N1CCOCC1,-32.2%,–,"13 µM [falling, partial curve, poor fit]"
N#C/C(=C\c1ccc(O)c(O)c1)C(=O)NCc1ccccc1,-1.13%,"0.206 µM [falling, full curve, poor fit]",–
O=C(CNC(=O)c1ccco1)N/N=C/c1ccc(C(=O)O)cc1,-15.2%,"0.206 µM [rising, single point]",–
CCC1(c2ccccc2)NC(=O)N(CC(=O)Nc2ccc(N3CCCC3)cc2C)C1=O (stereo not given),36.9%,"0.0651 µM [rising, full curve, poor fit]","16.4 µM [rising, single point]"

Compound,cell number change,AC50 [1],AC50 [2]
O=C(CSc1nnc(-c2ccccc2F)n1CCc1ccccc1)Nc1ccc2[nH]c(=O)[nH]c2c1,78.8%,"29.1 µM [rising, single point]","29.1 µM [rising, single point]"
O=C1C=C(c2ccc3c(c2)OCO3)C[C@@H](c2ccc3c(c2)OCO3)C1,-0.113%,"23.1 µM [rising, single point]",–
O=C(c1ccccc1Br)N1CCc2c([nH]c3ccccc23)C1,23.9%,"29.1 µM [rising, single point]",–
CNS(=O)(=O)c1cccc(C(=O)NCC(c2cccs2)N2CCOCC2)c1 (stereo not given),0.17%,"0.00461 µM [rising, full curve, poor fit]",–
CN1CCN(c2cc(-c3cc(O)c4ncccc4c3)ccn2)CC1,-13.6%,"25.9 µM [falling, single point]",–
O=C(O)C1Nc2c(C(=O)N3CCOCC3)cccc2C2C=CCC12 (stereo not given),-23.1%,"4.11 µM [falling, full curve]",–
O=C(Nc1sc2c(c1C(=O)O)CCC2)c1ccc(F)cc1,78.5%,–,"13 µM [rising, partial curve]"
O=C(NC1CCCCC1)c1cc([N+](=O)[O-])ccc1N1CCOCC1,18.6%,"0.116 µM [falling, full curve, poor fit]",–
COc1ccc(NC(=O)N2CCC(n3nnc4cc(C)ccc43)CC2)cc1,9.56%,"1.64 µM [rising, partial curve, poor fit]",–
Cc1ccc(S(=O)(=O)N2CCCCC2)cc1NC(=O)c1cc2ccccc2o1,-3.41%,"9.2 µM [falling, partial curve, poor fit]","6.51 µM [rising, single point]"
Cc1cc(N(C)Cc2ccccc2)nc2cc(O)ccc12,-16.7%,–,–
Cc1sc2nc(SCC(=O)Nc3ccccc3F)[nH]c(=O)c2c1C,5.13%,–,"0.731 µM [rising, single point]"
CC(C)c1ccc(N2C(=O)CC(Sc3ncn[nH]3)C2=O)cc1 (stereo not given),3.2%,"29.1 µM [falling, single point]",–
CCCC(c1nnnn1C1CCCCC1)N1CCN(C2CCCC2)CC1 (stereo not given),-23.1%,"29.1 µM [falling, partial curve, poor fit]",–
COc1cc(/C=C/C(=O)OC(C)C(=O)c2ccccc2)cc(OC)c1OC (stereo not given),-23.6%,"1.64 µM [falling, partial curve, poor fit]",–
Cn1c(=O)c(C(=O)NNC(=O)c2ccccc2Cl)c(O)c2ccccc21,8.33%,"29.1 µM [falling, single point]",–
O=C(Nc1nnc(-c2ccco2)o1)c1ccc2ccccc2c1,-10.3%,"29.1 µM [rising, single point]",–
O=C(Nc1cccnc1)c1ccc(S(=O)(=O)c2ccccc2)cc1,4.13%,–,–
COCCNC(=O)Cn1cc(/C=C(\C#N)C(=O)NC2CC2)c2ccccc21,36%,–,"0.82 µM [rising, full curve, poor fit]"
CSc1ccccc1C(=O)N1CCN(c2cccc(Cl)c2)CC1,11.9%,"0.103 µM [rising, partial curve, poor fit]",–
COc1ccc(-c2cc(=O)oc3cc(OC(C)C(=O)NCc4ccccn4)ccc23)cc1 (stereo not given),-19%,–,–

# Some values from the results shown:
# In cell number change, Cc1cc(N(C)Cc2ccccc2)nc2cc(O)ccc12 has -16.7%
# In cell number change, O=C(Nc1cccnc1)c1ccc(S(=O)(=O)c2ccccc2)cc1 has 4.13%
# In AC50 [1], COc1cc(/C=C/C(=O)OC(C)C(=O)c2ccccc2)cc(OC)c1OC (stereo not given) has 1.64 µM [falling, partial curve, poor fit]

# (continued)

Compound,cell number change,AC50 [1],AC50 [2]
O=C(O)CCCn1c(=O)[nH]c2ccccc2c1=O,-11.2%,"0.461 µM [falling, full curve, poor fit]","0.651 µM [falling, full curve, poor fit]"
C#C[C@]1(O)CC[C@H]2[C@@H]3CCC4=CC(=O)CC[C@@H]4[C@H]3CC[C@@]21CC,24.8%,"23.1 µM [rising, single point]",–
COc1ccc([N+](=O)[O-])cc1N(CC(=O)O)S(C)(=O)=O,-0.319%,–,–
Cc1cc(=O)oc2cc(OC(C)C(=O)NCCc3ccc(S(N)(=O)=O)cc3)ccc12 (stereo not given),5.2%,"29.1 µM [rising, single point]",–
COc1ccc2oc(C(=O)NCCc3ccccc3)c(C)c2c1,–,"0.58 µM [rising, single point]",–
O=Cc1ccc(O)c2ncccc12,0.279%,–,–
CCNC(=O)CC1C(=O)N(c2ccc(F)cc2)C(=O)N1Cc1ccc(OC)cc1 (stereo not given),-12%,–,–
CCOc1ccc(NS(=O)(=O)c2cccc(C(=O)N(C)Cc3ccco3)c2)cc1,-25.5%,"5.8 µM [falling, full curve, poor fit]",–
O=C(Nc1ccc(F)cc1)c1cccnc1NCCc1ccccc1,-27.5%,"32.6 µM [falling, single point]",–
Cc1ccc(CC(=O)NCc2ccc3c(c2)OCO3)cc1,0.586%,"0.00461 µM [falling, full curve, poor fit]",–
COC(=O)Nc1ccc2c(c1)ncn2C1CCCCC1,31.5%,–,"20.6 µM [rising, single point]"
COc1ccc(C(=O)NCCc2nnc3ccc(SCC(=O)NCc4ccc(F)cc4)nn23)cc1,-18.4%,–,–
COc1ccc(C)cc1NC(=O)CN(c1ccccc1)S(C)(=O)=O,–,"1.84 µM [rising, partial curve]",–
Cc1cc2cc(CN(Cc3ccc4c(c3)OCO4)C(=O)c3cnccn3)c3nnnn3c2cc1C,5.43%,"0.517 µM [rising, full curve]",–
FC(F)(F)c1ccc(N/N=C/c2cccnc2)nc1,12.6%,–,–
Cc1ccc(C)c(N(CC(=O)NC2CCCC2)C(=O)CNC(=O)c2cccs2)c1,-14.1%,"6.51 µM [falling, single point]",–
CSC1=N/C(=C\c2ccc(C)s2)C(=O)S1,–,"18.4 µM [rising, partial curve]","6.51 µM [falling, single point]"
CC(C)(C)NC(=O)C1CCC(CNc2c(N3CCCCC3)c(=O)c2=O)CC1 (stereo not given),46.5%,"18.4 µM [rising, partial curve]","11.6 µM [rising, partial curve, poor fit]"
CC(C)C(=O)N1CCN(c2ccccc2N)CC1,-4.74%,"2.59 µM [rising, single point]",–
